Source: the supplement of paper PMC12889115
Some of the results follow. Values are raw readings; no control value is given beside them.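 In the initial screen, polymyxin B was used at a concentration that permeabilizes Salmonella's outer membrane but not its inner membrane. Maximum growth was set by DMSO wells with or without polymyxin B. Since plates varied, data were ranked per plate, and compounds giving the lowest OD600 advanced as hits.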

System: Salmonella enterica serovar Typhimurium SL1344
Test: bacterial growth OD600 after 18 h with compound and polymyxin B; higher = more bacterial growth (less inhibition)
Details: 50 µM, Mueller-Hinton broth

Row | SMILES | bacterial growth OD600 (polymyxin B 0.75 µg/mL) | bacterial growth OD600 (polymyxin B 1 µg/mL)
1 | C=CCC(O)(CC=C)CNC(=O)CCC1(Cc2ccc(OC)c3ccccc23)CCC(=O)N1 (stereo not given) | 0.846 | –
2 | CC1CN(c2ccccc2)CCN1C(=O)CC1(c2ccccc2Cl)CC(=O)N(CCN(C)C)C1=O (stereo not given) | 0.669 | –
3 | O=C(CCN1CCCC1=O)NCc1cccnc1N1CCCCCCC1 | 0.847 | –
4 | CCC(=O)N(C)C(Cc1ccc(F)cc1F)C1CCN(C(=O)c2ccc(F)c(Cl)c2)CC1 (stereo not given) | 0.766 | –
5 | COc1ccc(CNC(=O)CCC2CCCN(CC3CCCCC3)C2)c(OC)c1 (stereo not given) | 0.819 | –
6 | Cc1ccc(OCc2cc(C(=O)N(C)CCC(O)c3ccccc3)no2)cn1 (stereo not given) | – | 0.936
7 | CCOc1cccc(CN2CCc3c(C(=O)NCc4ccccc4OC)c(OC)cc(=O)n3CC2)c1 | 0.83 | –
8 | COc1cc(Cl)c(CN2CCOc3ccc(CN4C[C@@H](C)O[C@@H](C)C4)cc3C2)cc1OC | 0.039 | –
9 | C[C@H]1C(=O)N(C)CCN1C(=O)c1cn(Cc2ccccc2Cl)nn1 | – | 1.12
10 | COCCN1C(=O)CC(CC(=O)N(C)CCOc2ccc(C)cc2)(c2ccccc2F)C1=O (stereo not given) | 0.825 | –
11 | COc1cccc(CNC(=O)C2CCCN(c3nc(C)c4ccc(S(C)(=O)=O)cc4n3)C2)c1 (stereo not given) | 0.81 | –
12 | O=C(NCCc1ccccc1)C1CCC(=O)N(Cc2ccc(Cl)cc2)C1 (stereo not given) | – | 0.849
13 | Cc1cc(C(=O)NC2CCCN(CC3CCCCC3)C2)n(C)n1 (stereo not given) | – | 1.03
14 | COCCC(=O)N1CCC(C2CCN(Cc3cccc(F)c3F)CC2)C1 (stereo not given) | 0.841 | –
15 | CCN1CCN(CC(=O)NCc2cccnc2Oc2ccccc2F)CC1 | – | 1.17
16 | COc1ccc(CCN2CC(NC(=O)c3ccccn3)CC2=O)cc1 (stereo not given) | – | 0.857
17 | Cc1cccc(CN(C)C2CCCN(CCc3ccccc3)C2)n1 (stereo not given) | – | 0.829
18 | CN(C(=O)C1CCCCC1)C1CCCN(Cc2ccccc2F)C1 (stereo not given) | – | 0.995
19 | O=C(NC1(c2ccccc2)CC1)C1CCC(=O)N(CCCN2CCCC2=O)C1 (stereo not given) | – | 0.957
20 | COCc1ccc(C(=O)N2CCCC(CCc3ccccc3C)C2)o1 (stereo not given) | 0 | –
21 | COCCC(=O)N1CCC(C(=O)Nc2ccc(-n3nc(C)cc3C)cc2)CC1 | – | 0.943
22 | COc1cccc(CC(C2CCN(C(=O)c3cccnc3OC)CC2)N(C)C(=O)c2ccn(C)n2)c1 (stereo not given) | 0.865 | –
23 | CC1(C(=O)N2CCC(C3CCN(c4ncccn4)CC3)C2)CCCCC1 (stereo not given) | 0.015 | –
24 | Cc1csc(S(=O)(=O)N2CCC(CO)(Cc3ccccc3Cl)CC2)c1 | – | 0.852
25 | COCCC(=O)N1CCC(Oc2ccc(C(=O)N[C@H]3CCCCNC3=O)cc2)CC1 | – | 0.839
26 | COc1ccc(CN2CCN(Cc3ccccc3F)CC2CCO)c(C)c1C (stereo not given) | – | 0.855
27 | C=CCC(=O)N1CCC(C2CCN(Cc3cccnc3)CC2)C1 (stereo not given) | 0.79 | –
28 | CCN(CC)C1CCN(C(=O)C2(N(C)C)Cc3ccccc3C2)C1 (stereo not given) | 0.814 | –
29 | COc1ccccc1CN1C(=O)O[C@@H]2CN(CCCn3cccn3)C[C@@H]21 | 0.816 | –
30 | O=C(CC1CC1)NC1CC(=O)N(CCCc2ccccc2)C1 (stereo not given) | – | 0.885

Some values from the entries so far.
Entry for `CCN(CC)C1CCN(C(=O)C2(N(C)C)Cc3ccccc3C2)C1` (stereo not given) under bacterial growth OD600 (polymyxin B 0.75 µg/mL): 0.814
Entry for `COc1cccc(CC(C2CCN(C(=O)c3cccnc3OC)CC2)N(C)C(=O)c2ccn(C)n2)c1` (stereo not given) under bacterial growth OD600 (polymyxin B 0.75 µg/mL): 0.865
